This series in a line: General physiology (plasma glucose, body weight) in streptozotocin-diabetic rats. In kind it is in vivo, rat. The following applies: control or diabetic rats, end of study.

`O=C(CCn1cnc2c(=O)[nH]cnc21)Nc1ccc(C(=O)O)cc1` [AIT-082, N-4-carboxyphenyl-3-(6-oxohydropurin-9-yl) propanamide]: the plasma glucose levels entry is on record as “did not affect”.

Source of the values: US6630490B2, “Methods for treatment of disease-induced peripheral neuropathy and related conditions” (NeoTherapeutics, Inc., priority 2000, dated 2003).
